# Measured values published in PubChem BioAssay AID540276 (National Center for Advancing Translational Sciences (NCATS), 2011).
# Among all 300,000 compounds or so, about 5,400 (1.8%) were called active. This list was built around the results that the source calls inconclusive (neither active nor inactive); the mix of calls is not that of the screen. The call rests on the fitted dose curve; tested in HEK293 cells. Where the call is inconclusive, the potency comes from a doubtful curve fit.
# Assay: qHTS for inhibitors of binding or entry into cells for Marburg Virus
# Settings: Marburg virus pseudotyped entry inhibition, cell reporter; activity change, negative = inhibition: at 37.8 µM (top of the series) unless noted
# On the % scale 0 is the no-effect control and ±100 the full control effect; potency means the concentration at half of the fitted maximal effect.
Structure (SMILES),"activity change, negative = inhibition",Potency
O=C(Nc1ccc(S(=O)(=O)N2CCOCC2)cc1)c1cccs1,inactive: -10.5%,–
CN1CCN(S(=O)(=O)c2ccc(Oc3ccc(F)c(Cl)c3)nc2)CC1,inactive: 7.33% [at 46.1 µM],–
Cn1nc(C(=O)Nc2cc(Cl)ccc2N2CCCC2)c2ccccc2c1=O,–,"inconclusive: 17.8 µM [inhibitor, single point]"
Cc1ccc(C)n1-c1cccc(S(=O)(=O)N2CCOCC2)c1,inactive: 0% [at 46.1 µM],–
C/C(CC(=O)Nc1ccc2ccccc2c1)=N\NC(=O)c1ccc(O)c(O)c1,inactive: -20.1% [at 46.1 µM],–
CN(CCc1ccccc1)c1cc2c(c3c1ccn3C)C1CCC2C1 (stereo unspecified),–,"inconclusive: 2.5 µM [inhibitor, full curve, poor fit]"
O=C(O)c1ccc(N/N=C/c2cc3c(cc2[N+](=O)[O-])OCO3)cc1,–,"inconclusive: 35.5 µM [inhibitor, single point]"
Cc1ccc(C(=O)OCc2ccc3c(c2)OCO3)cc1S(=O)(=O)N1CCCCC1,–,"inconclusive: 16.4 µM [inhibitor, partial curve, poor fit]"
Cc1cc(=O)[nH]c(SCC2(O)C3CC4CC(C3)CC2C4)n1 (stereo unspecified),–,"inconclusive: 0.251 µM [activator, single point]"
Cc1nnc(SCC(=O)N2c3ccccc3C(C)(c3ccccc3)CC2(C)C)s1 (stereo unspecified),–,"inconclusive: 8.91 µM [inhibitor, partial curve, poor fit]"
O=C(NCc1ccccc1)C1CCN(S(=O)(=O)c2ccc(N3CCCC3=O)cc2)CC1,–,"inconclusive: 8.91 µM [inhibitor, partial curve, poor fit]"
CC(=O)C(/C=N/c1cc(-c2ccc(C)cc2)nn1-c1ccccc1)=C(\C)O,–,"inconclusive: 0.517 µM [activator, full curve, poor fit]"
CN(C)c1ccc(NC2=C([N+](=O)[O-])CS(=O)(=O)C2)cc1,inactive: 18.6%,–
OCC(O)C1OC(c2ccco2)OC(CO)C1O (stereo unspecified),inactive: 2.06% [at 46.1 µM],–
CCCOc1ccc(C2=NNC(=O)CC2)cc1,inactive: 27%,–
CN(c1cccc(F)c1)c1cc2c(c3c1ccn3C)C1CCC2C1 (stereo unspecified),–,"inconclusive: 11.2 µM [inhibitor, full curve, poor fit]"
Cc1cc(C(=O)OCC(=O)NC2CCC(C)CC2)c(C)o1 (stereo unspecified),–,"inconclusive: 3.55 µM [inhibitor, single point]"
CSc1nc(N)n2nc(-c3ccccc3)cc2n1,–,"inconclusive: 3.98 µM [activator, partial curve, poor fit]"
CCOc1ccccc1Nc1nc(-c2ccc(C)cc2)c(CC(=O)O)s1,–,"inconclusive: 35.5 µM [inhibitor, single point]"
CC1=C(C(=O)OCc2ccc3c(c2)OCO3)C(c2ccccc2)NC(=O)N1 (stereo unspecified),–,"inconclusive: 14.6 µM [inhibitor, partial curve, poor fit]"
CCOc1ccc(OCC(=O)Nc2ccccc2C(F)(F)F)cc1,–,"inconclusive: 2.82 µM [activator, partial curve, poor fit]"
CC(CN1CCN(C)CC1)OC(=O)c1cccc(F)c1 (stereo unspecified),inactive: 4.03%,–
O=C(c1ccccc1Cl)N1CCc2ccccc2C1,inactive: 19.6%,–
Cc1ccccc1NS(=O)(=O)c1ccc(OCC(=O)NCC2CCCO2)cc1 (stereo unspecified),inactive: 10.1%,–

# Some of the entries above in a different format:
Structure (SMILES) | activity change, negative = inhibition | Potency
O=C(Nc1ccc(S(=O)(=O)N2CCOCC2)cc1)c1cccs1 | inactive: -10.5% | –
CN1CCN(S(=O)(=O)c2ccc(Oc3ccc(F)c(Cl)c3)nc2)CC1 | inactive: 7.33% [at 46.1 µM] | –
Cn1nc(C(=O)Nc2cc(Cl)ccc2N2CCCC2)c2ccccc2c1=O | – | inconclusive: 17.8 µM [inhibitor, single point]
Cc1ccc(C)n1-c1cccc(S(=O)(=O)N2CCOCC2)c1 | inactive: 0% [at 46.1 µM] | –
C/C(CC(=O)Nc1ccc2ccccc2c1)=N\NC(=O)c1ccc(O)c(O)c1 | inactive: -20.1% [at 46.1 µM] | –
CN(CCc1ccccc1)c1cc2c(c3c1ccn3C)C1CCC2C1 (stereo unspecified) | – | inconclusive: 2.5 µM [inhibitor, full curve, poor fit]
O=C(O)c1ccc(N/N=C/c2cc3c(cc2[N+](=O)[O-])OCO3)cc1 | – | inconclusive: 35.5 µM [inhibitor, single point]
Cc1cc(=O)[nH]c(SCC2(O)C3CC4CC(C3)CC2C4)n1 (stereo unspecified) | – | inconclusive: 0.251 µM [activator, single point]
OCC(O)C1OC(c2ccco2)OC(CO)C1O (stereo unspecified) | inactive: 2.06% [at 46.1 µM] | –
CCCOc1ccc(C2=NNC(=O)CC2)cc1 | inactive: 27% | –
Cc1cc(C(=O)OCC(=O)NC2CCC(C)CC2)c(C)o1 (stereo unspecified) | – | inconclusive: 3.55 µM [inhibitor, single point]
CSc1nc(N)n2nc(-c3ccccc3)cc2n1 | – | inconclusive: 3.98 µM [activator, partial curve, poor fit]
CCOc1ccccc1Nc1nc(-c2ccc(C)cc2)c(CC(=O)O)s1 | – | inconclusive: 35.5 µM [inhibitor, single point]
CC1=C(C(=O)OCc2ccc3c(c2)OCO3)C(c2ccccc2)NC(=O)N1 (stereo unspecified) | – | inconclusive: 14.6 µM [inhibitor, partial curve, poor fit]
CCOc1ccc(OCC(=O)Nc2ccccc2C(F)(F)F)cc1 | – | inconclusive: 2.82 µM [activator, partial curve, poor fit]
CC(CN1CCN(C)CC1)OC(=O)c1cccc(F)c1 (stereo unspecified) | inactive: 4.03% | –
Cc1ccccc1NS(=O)(=O)c1ccc(OCC(=O)NCC2CCCO2)cc1 (stereo unspecified) | inactive: 10.1% | –

# Further records.

Structure (SMILES),"activity change, negative = inhibition",Potency
CCC(C)(C)N1CC(=O)N(Cc2ccccc2)C(c2ccc(OC)cc2)C1=O (stereo unspecified),–,"inconclusive: 5.62 µM [activator, single point]"
Cc1ccccc1N1CC(C(=O)Nc2nnc(SCCC3OCCO3)s2)CC1=O (stereo unspecified),inactive: -24.4%,–
CCC(Sc1nc2ccccc2c2nc3ccccc3n12)C(=O)NCc1ccco1 (stereo unspecified),inactive: -2.64%,–
COCCn1nnnc1CN(Cc1ccco1)Cc1cc2cc3c(cc2[nH]c1=O)OCO3,inactive: 1.69%,–
Cc1ccc(C)c(Cn2c3ccccc3c3cnn(CC(=O)NCC(C)c4ccccc4)c(=O)c32)c1 (stereo unspecified),inactive: 4.77% [at 46.1 µM],–
O=C(Nc1ccc(SC(F)F)cc1)C1=COCCO1,–,"inconclusive: 0.82 µM [activator, single point]"
CC(C)CON=C1C[C@@H](O)[C@@H](O)[C@@H]2[C@H]3C(=O)N([C@@H](C)c4ccccc4)C(=O)[C@@H]3CC[C@H]12,–,"inconclusive: 0.0376 µM [inhibitor, full curve, poor fit]"
Cc1cnc(NC(=O)CCN2C(=O)C3CCCCC3C2=O)s1 (stereo unspecified),inactive: -15.4% [at 46.1 µM],–
Cn1cccc1CC(=O)N/N=C/C=C/c1ccccc1,–,"inconclusive: 4.47 µM [activator, full curve, poor fit]"
COc1ccc(NS(=O)(=O)c2ccc(NC(=S)NC(=O)CC(C)C)cc2)cc1,–,"inconclusive: 35.5 µM [inhibitor, single point]"
COc1ccc(CCN2CN(S(=O)(=O)c3ccc(C)cc3)c3nc4ccccc4nc32)cc1OC,–,"inconclusive: 20 µM [activator, partial curve, poor fit]"
Cc1nc(-n2nc(C)c(Cc3ccc(Cl)cc3)c2C)sc1C(=O)N1CCCCC1C (stereo unspecified),inactive: 3.51% [at 46.1 µM],–
CCCN(CCC)CCN1C(=O)C2C(C(=O)Nc3cccc(SC)c3)C3C=CC2(O3)C1C(=O)NC1CCCCC1 (stereo unspecified),–,"inconclusive: 35.5 µM [inhibitor, single point]"
Cc1ccc(Cl)cc1NC(=O)Cn1nc(-c2cccs2)ccc1=O,–,"inconclusive: 0.562 µM [inhibitor, full curve, poor fit]"
O=C(Nc1ccccc1N1CCCCC1)c1cccc(Cl)c1,inactive: -6.23% [at 46.1 µM],–
O=C(N/N=C/c1ccc(OC(F)F)cc1)c1ccc(CSc2nc3ccccc3[nH]2)cc1,inactive: -0.0538% [at 46.1 µM],–
CC(=O)c1cccc(NC(=O)Cn2c(=O)oc3cc(S(=O)(=O)NC4CCCC4)ccc32)c1,inactive: -3.53% [at 46.1 µM],–
CCOC(=O)C1(CC2CC2)CCN(Cc2cnc(-c3ccc(OC)cc3)nc2)CC1,–,"inconclusive: 13 µM [inhibitor, partial curve, poor fit]"
COc1ccccc1-c1noc(-c2ccccc2C(=O)Nc2cccnc2)n1,inactive: -19.3%,–
c1ccc(-n2nnnc2SCCCSc2nc3ccccc3s2)cc1,inactive: 1.94%,–
COc1ccc(N(CC(=O)NC2CCCCCC2)S(=O)(=O)c2ccccc2)cc1Cl,–,"inconclusive: 0.282 µM [activator, full curve, poor fit]"
COc1ccc2c(c1)CCC1C2CC[C@@]2(C)C1CC[C@@H]2NCCCCCCN1C(=O)CCC1=O (stereo partly specified),–,"inconclusive: 29.1 µM [inhibitor, single point]"
O=C(Nc1ccccc1C(=O)NCCCN1CCOCC1)c1ccc(Cl)cc1,inactive: 6.33%,–
C=Cn1ccnc1P(=S)(c1nccn1C=C)c1nccn1C=C,inactive: 3.74%,–

Structure (SMILES),"activity change, negative = inhibition",Potency
N#CCCn1cc(C(=O)Nc2ccc(C(=O)O)cc2)c(-c2cccc(Br)c2)n1,inactive: 13.3%,–
Cn1c(/C=N/NC(=O)c2ccccc2Br)nc2ccccc21,inactive: 13.8%,–
CCCCN(CCCC)CCCN1CC(=O)N2[C@@H](Cc3c([nH]c4ccccc34)C2(C)C)C1=O,–,"inconclusive: 35.5 µM [inhibitor, single point]"
Cc1ccc(NC(=O)COc2ccc3c(c2)CCC3)nc1,–,"inconclusive: 7.08 µM [activator, partial curve, poor fit]"
N#Cc1c2n(c(=S)n(-c3ccc(F)cc3)c1=O)CCCCC2,–,"inconclusive: 10 µM [activator, partial curve, poor fit]"
CCOC(=O)C1=C(C)NC(=O)NC1c1ccc2c(c1)OCO2 (stereo unspecified),inactive: 6.92% [at 46.1 µM],–
CC(=O)c1ccc(NC(=S)NC2CCCC(C)C2C)cc1 (stereo unspecified),inactive: 9.9% [at 46.1 µM],–
Cc1cc(Nc2cccc(C(=O)O)c2)n2ncnc2n1,–,"inconclusive: 14.1 µM [activator, single point]"
Cc1ccc2c(Cl)c(C(=O)Nc3cc(C)on3)sc2c1,–,"inconclusive: 0.517 µM [activator, full curve, poor fit]"
CCCC(C(=O)NC1CCCC1)N(CCN(CC)CC)C(=O)c1snc(C(N)=O)c1N (stereo unspecified),inactive: -12.1% [at 46.1 µM],–
CCCn1c(=O)c(C(=O)NCCc2ccccc2)c(O)c2ccccc21,–,"inconclusive: 5.01 µM [activator, full curve, poor fit]"
Cc1ccc(CSc2ccc3nnc(-c4ccccn4)n3n2)cc1,inactive: -9.23%,–
CN(C)CCNC(C(=O)Nc1cccc(C(F)(F)F)c1)c1ccccc1 (stereo unspecified),–,"inconclusive: 12.6 µM [inhibitor, partial curve, poor fit]"
Cc1nn(CC(=O)Nc2ccc(S(N)(=O)=O)cc2)c(=O)c2ccccc12,–,"inconclusive: 0.794 µM [inhibitor, single point]"
COc1ccc(-c2cccc(NC(=O)c3ccc4c(c3)OCO4)c2)nn1,–,"inconclusive: 35.5 µM [inhibitor, partial curve, poor fit]"
CC(=O)c1ccc(Sc2ccc(C(C)=O)cc2)cc1,inactive: 12.4%,–
CC1CCN(C(=O)CSc2ccc(-c3cccnc3)nn2)CC1,inactive: 18.9%,–
CC(C)CCNC(=O)C(c1ccc(O)cc1)N(Cc1ccco1)C(=O)CCC(=O)Nc1nccs1 (stereo unspecified),–,"inconclusive: 2.51 µM [inhibitor, partial curve, poor fit]"
CC(=O)Nc1cccc(NC(=O)c2ccc3c(c2)CCN3S(=O)(=O)c2ccccc2)c1,–,"inconclusive: 3.55 µM [inhibitor, full curve, poor fit]"
O=C1N/C(=C/c2cccn2-c2ccc(F)cc2)C(=O)N1Cc1ccccc1,–,"inconclusive: 32.6 µM [inhibitor, single point]"
Cc1cccc(C)c1OCC(=O)N1CC2(C)CC1CC(C)(C)C2 (stereo unspecified),–,"inconclusive: 35.5 µM [inhibitor, single point]"
C/C(=N/NC(=O)CNC(=O)Cc1ccccc1)c1ccco1,–,"inconclusive: 0.259 µM [activator, full curve, poor fit]"
O=c1c2sc3ccccc3c2[nH]c(=S)n1CCN1CCOCC1,–,"inconclusive: 1.78 µM [activator, full curve]"
